The values below come from patent US20040029185.

For some of these results: At least one result comes from cells or an extract, where the contact may be indirect. For some of these results: Negatives hold for the conditions tested. Where a protein sequence is shown, tags need not be part of it.

In series [1] the target is T1, TBX2 (Homo sapiens) (UniProt Q13207).
T1 sequence (looked up): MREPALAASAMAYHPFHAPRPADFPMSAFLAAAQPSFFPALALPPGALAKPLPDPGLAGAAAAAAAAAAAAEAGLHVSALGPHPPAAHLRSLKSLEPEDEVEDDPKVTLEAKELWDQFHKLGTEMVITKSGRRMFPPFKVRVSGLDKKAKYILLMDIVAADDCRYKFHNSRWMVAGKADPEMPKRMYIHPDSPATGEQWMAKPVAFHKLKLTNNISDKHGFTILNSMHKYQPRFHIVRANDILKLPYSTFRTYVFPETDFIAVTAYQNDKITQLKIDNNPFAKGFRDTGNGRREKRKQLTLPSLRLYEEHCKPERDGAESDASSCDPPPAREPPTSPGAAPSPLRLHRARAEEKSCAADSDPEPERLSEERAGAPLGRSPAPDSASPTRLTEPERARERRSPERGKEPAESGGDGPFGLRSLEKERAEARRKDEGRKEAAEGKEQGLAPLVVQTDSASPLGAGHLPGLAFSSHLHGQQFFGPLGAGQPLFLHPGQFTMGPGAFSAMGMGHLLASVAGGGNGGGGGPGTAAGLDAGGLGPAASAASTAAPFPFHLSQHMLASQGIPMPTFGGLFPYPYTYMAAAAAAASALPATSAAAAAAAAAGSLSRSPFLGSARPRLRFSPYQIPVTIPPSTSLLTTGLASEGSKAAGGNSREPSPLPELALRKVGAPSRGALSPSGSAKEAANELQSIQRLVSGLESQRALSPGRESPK
As to the kind of experiment: EMSA. The note with it: protein in a lysate after overexpression, label: 32P. A general note: Mobility shift assays separate free from complexed probe on a gel.

The target of series [2] is T2, TBX2 (transfected) (Homo sapiens) (UniProt Q13207).
T2 sequence (looked up): T1 sequence (looked up)
Briefly: activity in cells. The note with it: strong dose-dependent repression of reporter in Cos-7; protein in cells.

The target of series [3] is T1, TBX2 (Homo sapiens). Briefly: competition with a labelled probe. The note with it: cold oligo competes the SEQ ID NO: 4 shift; protein in a lysate after overexpression.

As for “CTGCTTGACTCTAAGTCCAAA (double strand) [mutant ARF T-site oligo]”, the binding result with TBX2 (Homo sapiens) [1] (no shift or supershift with labeled mutant, no competition as cold oligo, variant of ARF promoter T-site-like oligo) is “no binding”. Turning to “TCTGCAGTTAAGGGGGCAGGAGTGGCGCTGCTCACCTCTGGTGCCAAAGGGCGGCGCAGCGGCTGCCGAGCTC (double strand) [human ARF promoter -19 to +54 (CAT reporter)]”, the “activity on this sequence” value in series [2] is recorded as “active”. Regarding “CAGTTAAGGGGGCAGGAGTGGCGCTGCTCACCTCTGGTGCCAAAGGGCGG (double strand) [ARF promoter 50-mer]”, in the series with TBX2 (Homo sapiens) [3], the binding result is “binds”. For the sequence “CTGCTCACCTCTGGTGCCAAA (double strand) [ARF promoter T-site-like oligo]”, the binding result with TBX2 (Homo sapiens) [1] (supershifted by anti-TBX2 antibodies, competed by cold oligo) is given as “binds”.
